Measured values published in patent US20130039974A1.
No constants are given. Whether binding was seen depends on the method and setting. Some binding calls cover weakened binding; strength is not graded here.

The chains behind the UniProt entries cited, without tags or fusion partners. Where a name states a change or a piece, a line headed by the entry shows the natural chain unless it says otherwise.
UniProt P15941: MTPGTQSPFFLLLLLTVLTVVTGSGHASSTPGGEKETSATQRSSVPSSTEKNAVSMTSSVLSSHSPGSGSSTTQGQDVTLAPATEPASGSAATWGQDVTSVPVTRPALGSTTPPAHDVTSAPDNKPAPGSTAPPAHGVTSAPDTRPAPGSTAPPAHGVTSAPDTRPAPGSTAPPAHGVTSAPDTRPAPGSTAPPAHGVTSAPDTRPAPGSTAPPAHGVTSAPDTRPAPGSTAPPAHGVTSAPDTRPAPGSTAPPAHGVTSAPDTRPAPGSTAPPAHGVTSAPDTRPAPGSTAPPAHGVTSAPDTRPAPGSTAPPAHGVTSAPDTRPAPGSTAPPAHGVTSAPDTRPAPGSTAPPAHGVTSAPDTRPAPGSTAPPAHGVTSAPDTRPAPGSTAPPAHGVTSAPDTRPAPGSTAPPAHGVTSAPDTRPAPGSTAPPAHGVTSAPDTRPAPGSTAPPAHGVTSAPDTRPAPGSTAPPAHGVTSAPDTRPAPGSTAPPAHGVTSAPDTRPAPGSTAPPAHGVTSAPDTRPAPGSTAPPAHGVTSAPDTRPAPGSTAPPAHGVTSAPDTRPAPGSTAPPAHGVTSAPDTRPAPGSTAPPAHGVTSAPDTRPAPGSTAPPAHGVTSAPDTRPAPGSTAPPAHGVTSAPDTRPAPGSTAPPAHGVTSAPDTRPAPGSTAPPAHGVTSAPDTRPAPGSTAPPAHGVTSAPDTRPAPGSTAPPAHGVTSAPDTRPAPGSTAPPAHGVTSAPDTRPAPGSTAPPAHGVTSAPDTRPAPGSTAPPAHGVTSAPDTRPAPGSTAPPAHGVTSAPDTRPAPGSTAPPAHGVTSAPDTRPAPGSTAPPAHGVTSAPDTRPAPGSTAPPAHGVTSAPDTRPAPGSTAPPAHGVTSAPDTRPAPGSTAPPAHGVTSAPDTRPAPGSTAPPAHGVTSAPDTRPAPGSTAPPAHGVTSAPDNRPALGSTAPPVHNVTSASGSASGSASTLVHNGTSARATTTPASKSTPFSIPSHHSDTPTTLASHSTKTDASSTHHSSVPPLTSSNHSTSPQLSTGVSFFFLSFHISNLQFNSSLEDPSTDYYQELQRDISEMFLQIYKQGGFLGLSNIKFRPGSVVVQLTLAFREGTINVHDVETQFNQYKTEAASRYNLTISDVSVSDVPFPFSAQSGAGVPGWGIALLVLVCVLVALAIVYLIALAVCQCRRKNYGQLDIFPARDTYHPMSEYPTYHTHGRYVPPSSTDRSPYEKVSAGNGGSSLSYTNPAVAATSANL

Molecular target: MUC1-C (human) (UniProt P15941)
Assay: Immunohistochemistry, formalin-fixed human breast carcinoma sections, CD2 1:100

- binding: binds
B1: anti-MUC1-CD (CD2) antibody (antibody, V domains shown)
VH: EVQLQQSGAELVKPGASVKLSCTASGFNIEDHYMHWVKQRTEQGLDWIGRIDPEDGQTKYDPKFQGKATITVDTSSNTAYLQLSSLTSEDTAVYYCARNYPYALDYWGQGTSVTVSS
VL: DIVMSQSPSSLAVSVGEKVTLSCKSSQSLLYSSDQKNYLAWYQQKPGQSPKLLIYWASTRESGVPDRFTGSGSGTDFTLTISSVKAEDLAVYYCQQYYRYPFTFGSGTQLEIK
